Measurements from patent US20040097478A1, “Remedies for retina and choroid diseases containing steroids as the active ingredient” (SANTEN PHARMACEUTICAL O., LTD, priority 2001, published 2004).
Like-named read-outs stand apart in the source and are kept apart here.

Test system: Laser-induced rat choroidal neovascularization models
Conditions: for Choroidal neovascularization inhibition rate (%): versus vehicle administration group
Procedure: A one ml/kg mixed solution (7:1) of a 5% ketamine hydrochloride injection and a 2% xylazine hydrochloride injection was administered intramuscularly to rats to anesthetize them systemically. A 0.5% tropicamide-0.5% phenylephrine hydrochloride ophthalmic solution was instilled into the eyes to cause mydriasis, and then photocoagulation was performed with a krypton laser photocoagulation apparatus. The photocoagulation was carried out in a posterior section of ocular fundus at eight spots per eye sparsely avoiding thick retinal vessels and focusing on the retinal depth (coagulation conditions: spot size: 100 μm, output: 100 mW, coagulation time: 0.1 sec). After the photocoagulation, the ocular fundus was photographed to confirm laser irradiation sites.
Triamcinolone was suspended in the phosphate buffers as a comparative group so that its concentrations were 0.2 mg/ml and 2 mg/ml, and each suspension was administered similarly. The phosphate buffer was administered similarly as a vehicle administration group.
On seventh day after the photocoagulation, 0.1 ml of 10% fluorescein was injected from carotid vein, and fluorescein fundus angiography was performed. In the fluorescein fundus angiography, a spot where fluorescence diapedesis was not observed was judged as negative, and a spot where fluorescence diapedesis was observed was judged as positive. Each neovascularization exhibition rate was obtained by calculating the ratio of a positive spot number to eight spots irradiated with the laser, and each choroidal neovascularization inhibition rate was calculated according to the following equation.
Choroidal neovascularization inhibition rate (%)=(Ao−Ax)/Ao×100
Ao: Neovascularization exhibition rate of vehicle administration group
Ax: Neovascularization exhibition rate of drug administration group

Compound: C[C@H]1C[C@H]2[C@@H]3CCC4=CC(=O)C=C[C@]4(C)[C@@]3(F)[C@@H](O)C[C@]2(C)[C@@]1(O)C(=O)COP(=O)([O-])[O-].[Na+].[Na+] [Betamethasone sodium phosphate, betamethasone sodium phosphate]
- Inhibitory effect on choroidal neovascularization relative to triamcinolone (10 μg/eye/day): about three times stronger
- Choroidal neovascularization inhibition rate (%) (10 μg/eye/day subconjunctival for seven days): 36.3%
- Choroidal neovascularization inhibition rate (%) (100 μg/eye/day subconjunctival for seven days): 79.4%
